# Library screen at single concentrations

The values are deposited in ChEMBL (CHEMBL3988442, “University of Dundee, Small-Polar-MMV Screening Library” (2021)).

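Assay of Toxoplasma gondii numbers, read through their beta-galactosidase reporter with a colour substrate. Compounds at 50 µM. The record gives no direction; the compounds picked for IC50 retests had high values, so higher reads as fewer parasites. Size under these conditions: about 18,000 compounds, about 170 of them at 50% or above in at least one test.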

Values are the deposited “Percent Effect”, in %. The record does not define 0% and 100%; most values in the screen are far below 50% and negative numbers occur (in some assays of this library far below -100). This is an unselected part of the compounds tested.

With Cc1cnc(C(=O)Nc2ccn(C)n2)cn1 the screen gave 6.235%. With CC(C)N1CC(C(=O)NCc2c[nH]nn2)CC1=O (stereo not given) the screen gave -7.935%. With NC(=O)Cc1n[nH]c(-c2cccnc2)n1 the screen gave 6.91%. COc1ccc(CNS(=O)(=O)c2c(N)noc2C)cc1 read -0.9952%. CC(C)c1nnc(CNCC2CCN(CCO)CC2)o1 gave -6.732%. With CC(C)NS(=O)(=O)c1cc(CO)ccc1F the screen gave -2.272%. For CS(=O)(=O)NCCc1ccc(C(=O)NCC2CC2)cc1 the result was -5.928%.

CC(=O)N1CCCN(c2ccncc2N)CC1 read 1.891%. With CCN(CC(N)=O)Cc1ccccc1NC(C)=O the screen gave 1.651%. For COc1cccc(C)c1NC(=O)NCC1COCCO1 (stereo not given) the result was 3.906%. For CCN(CC)CC(=O)Nc1ccc(C(=O)N(C)C)cc1 the result was 1.701%. Result for CCc1cccc2c1N(CC(N)=O)CCC2 was -7.551%. Result for CC(C)(N)CNS(=O)(=O)Cc1cccc(F)c1 was 8.078%. C1CCC(OCC2CCNCC2)C1 read -9.205%.

Cc1n[nH]cc1CNCc1nccs1 gave -5.718%. CN(C(=O)Cn1cc(Br)cn1)C1(C#N)CCCCC1 gave 0.04366%. Result for OC[C@@H](Cc1ccccc1)NC1CCOC1 (stereo not given in full) was -2.55%. CN1CCNC(=O)C1CC(=O)N1CCCCCCC1 (stereo not given) read 8.985%. With CS(=O)(=O)c1cc(CN)cc(C(F)(F)F)c1 the screen gave -5.924%. With O=C(NCCN1CC=CC1)c1c(O)cc(F)cc1F the screen gave 3.87%. N#Cc1ccc(NCC(=O)NC2CCOCC2)cc1 gave -8.851%.

O=C(CCNCc1sccc1Cl)NCc1cccnc1 read -4.68%. Result for CC1(C)CNC(=O)CN1C(=O)CC(F)(F)F was 0.7943%. With Cn1cc(CC(N)CO)cn1 (stereo not given) the screen gave -14.29%. Result for CCC(C)N(CCOC)Cc1cc(=O)n(C)c(=O)n1C (stereo not given) was -0.5413%. CC(C)Cc1cc(C(=O)NC[C@@H]2C[C@H](F)CN2)on1 gave 11.72%. CC(=O)c1c[nH]c(C(=O)NCCNc2ncccn2)c1 read 2.986%. Nc1cc(CN2CCOC(COCC3CC3)C2)ccn1 (stereo not given) gave -1.965%.

CCOC(C)C(=O)Nc1ncccc1F (stereo not given) read 14.34%. Cc1ccc(CN(CC(=O)N2CCNC2=O)C(C)C)s1 read -25.32%. With CN(C)S(=O)(=O)N1CCCNCC1 the screen gave -6.81%. [H][C@]12CNC[C@]([H])(CN(S(=O)(=O)c3cccc(F)c3)C1)O2 read 1.515%. With CC(C)(C)OC(=O)CN(CCCO)Cc1cccnc1 the screen gave 10.21%. For COCCN1CCC(CC(=O)N2CCN(C)CC2)CC1 the result was -17.01%. CC(C)N(C)C(=O)Nc1cccnc1OCC(F)F read 2.781%.

Cc1nonc1OCCNC(=O)CN1CCOCC1 gave 17.45%. For CC(C(=O)Nc1ccc(C(N)=O)cc1)n1cccn1 (stereo not given) the result was 5.771%. CCN(CC(=O)NC)S(=O)(=O)N1CCOCC1 read -5.441%. CCN(CC)C(=O)CN(C)S(=O)(=O)C(C)C(F)(F)F (stereo not given) gave -1.348%. With CCC(NS(=O)(=O)c1cc(C)nn1CC)[C@H]1C[C@H](O)C1 (stereo not given in full) the screen gave -0.07643%. CCCn1nc(C)cc1NC(=O)N1CCCC(C#N)C1 (stereo not given) gave -0.4936%. Cc1cc(CC(=O)NCCCc2ccncc2)on1 read 7.775%.

Cc1cccc(C[S+]([O-])CC(=O)NCC2CC2)c1 (stereo not given) gave 8.447%.

For reference, 3 entries once more:

structure	effect
CC(C)(C)OC(=O)CN(CCCO)Cc1cccnc1	10.21%
CS(=O)(=O)c1cc(CN)cc(C(F)(F)F)c1	-5.924%
NC(=O)Cc1n[nH]c(-c2cccnc2)n1	6.91%